From the supplement of paper PMC10849652
This is one part of the list.

By UniProt entry, the sequences of proteins in these tests, tags left out. Where a name states a change or a piece, a line headed by the entry shows the natural chain unless it says otherwise.
UniProt Q9Y376: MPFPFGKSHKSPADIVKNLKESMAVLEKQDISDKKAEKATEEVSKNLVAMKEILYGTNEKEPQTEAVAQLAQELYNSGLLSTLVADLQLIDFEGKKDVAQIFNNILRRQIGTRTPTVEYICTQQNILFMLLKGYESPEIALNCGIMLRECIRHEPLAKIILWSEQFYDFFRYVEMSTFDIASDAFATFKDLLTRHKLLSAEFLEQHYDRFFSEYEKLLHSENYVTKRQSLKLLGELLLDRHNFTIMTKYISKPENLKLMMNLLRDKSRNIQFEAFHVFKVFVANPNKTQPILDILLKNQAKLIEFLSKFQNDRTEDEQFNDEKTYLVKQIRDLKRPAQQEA
UniProt Q9P1Z2: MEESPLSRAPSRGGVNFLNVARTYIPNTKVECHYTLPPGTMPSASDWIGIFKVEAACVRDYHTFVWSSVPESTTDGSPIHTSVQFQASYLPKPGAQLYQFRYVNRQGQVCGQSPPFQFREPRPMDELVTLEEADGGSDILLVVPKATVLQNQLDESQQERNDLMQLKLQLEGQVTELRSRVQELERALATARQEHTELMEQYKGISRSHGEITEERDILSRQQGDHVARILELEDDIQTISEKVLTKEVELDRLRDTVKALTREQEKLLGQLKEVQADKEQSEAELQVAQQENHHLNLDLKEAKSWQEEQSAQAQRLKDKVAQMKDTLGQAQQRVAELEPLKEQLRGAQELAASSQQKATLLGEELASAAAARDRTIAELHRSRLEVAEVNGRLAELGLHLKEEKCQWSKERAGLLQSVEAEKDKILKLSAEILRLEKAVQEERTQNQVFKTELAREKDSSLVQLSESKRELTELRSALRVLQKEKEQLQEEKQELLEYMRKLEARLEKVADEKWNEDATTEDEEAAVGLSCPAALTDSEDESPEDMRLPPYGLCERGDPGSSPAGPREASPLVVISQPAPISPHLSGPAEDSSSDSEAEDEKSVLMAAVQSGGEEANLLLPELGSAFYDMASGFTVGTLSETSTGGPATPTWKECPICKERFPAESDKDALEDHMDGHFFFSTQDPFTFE
UniProt Q8WVQ1: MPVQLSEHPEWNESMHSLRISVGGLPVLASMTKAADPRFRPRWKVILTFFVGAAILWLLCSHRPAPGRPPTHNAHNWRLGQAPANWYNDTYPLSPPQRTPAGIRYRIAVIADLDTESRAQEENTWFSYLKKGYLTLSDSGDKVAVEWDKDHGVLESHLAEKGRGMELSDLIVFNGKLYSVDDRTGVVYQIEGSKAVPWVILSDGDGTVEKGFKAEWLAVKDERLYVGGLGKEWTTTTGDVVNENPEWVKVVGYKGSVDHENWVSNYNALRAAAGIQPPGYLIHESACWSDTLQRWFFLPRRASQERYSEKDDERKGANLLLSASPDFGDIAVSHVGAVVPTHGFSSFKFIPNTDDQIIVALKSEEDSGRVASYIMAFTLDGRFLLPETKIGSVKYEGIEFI
UniProt Q96LT7: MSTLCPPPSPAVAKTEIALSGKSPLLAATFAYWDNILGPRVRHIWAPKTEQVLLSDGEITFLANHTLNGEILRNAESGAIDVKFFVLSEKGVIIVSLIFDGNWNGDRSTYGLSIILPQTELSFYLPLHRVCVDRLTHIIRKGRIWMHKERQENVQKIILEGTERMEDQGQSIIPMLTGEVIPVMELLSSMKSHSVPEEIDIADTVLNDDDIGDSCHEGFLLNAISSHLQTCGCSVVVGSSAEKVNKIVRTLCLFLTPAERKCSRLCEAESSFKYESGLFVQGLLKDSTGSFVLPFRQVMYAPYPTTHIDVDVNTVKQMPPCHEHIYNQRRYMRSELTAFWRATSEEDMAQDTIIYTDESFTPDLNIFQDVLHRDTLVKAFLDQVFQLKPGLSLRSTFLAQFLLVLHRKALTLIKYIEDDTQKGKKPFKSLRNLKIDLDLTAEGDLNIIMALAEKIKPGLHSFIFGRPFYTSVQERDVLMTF
UniProt Q9H0W9: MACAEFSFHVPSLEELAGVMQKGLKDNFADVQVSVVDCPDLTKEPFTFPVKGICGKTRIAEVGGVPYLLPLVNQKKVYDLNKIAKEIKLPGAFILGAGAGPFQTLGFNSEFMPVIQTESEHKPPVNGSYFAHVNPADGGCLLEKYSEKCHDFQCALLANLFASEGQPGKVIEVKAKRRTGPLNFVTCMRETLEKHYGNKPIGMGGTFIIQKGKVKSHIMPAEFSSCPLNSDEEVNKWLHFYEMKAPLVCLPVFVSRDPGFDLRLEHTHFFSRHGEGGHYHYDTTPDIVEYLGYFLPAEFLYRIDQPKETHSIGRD
UniProt Q13901: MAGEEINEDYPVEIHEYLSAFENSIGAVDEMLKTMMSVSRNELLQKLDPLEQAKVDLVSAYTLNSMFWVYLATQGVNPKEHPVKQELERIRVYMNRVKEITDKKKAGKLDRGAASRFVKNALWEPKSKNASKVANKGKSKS
UniProt Q86VP6: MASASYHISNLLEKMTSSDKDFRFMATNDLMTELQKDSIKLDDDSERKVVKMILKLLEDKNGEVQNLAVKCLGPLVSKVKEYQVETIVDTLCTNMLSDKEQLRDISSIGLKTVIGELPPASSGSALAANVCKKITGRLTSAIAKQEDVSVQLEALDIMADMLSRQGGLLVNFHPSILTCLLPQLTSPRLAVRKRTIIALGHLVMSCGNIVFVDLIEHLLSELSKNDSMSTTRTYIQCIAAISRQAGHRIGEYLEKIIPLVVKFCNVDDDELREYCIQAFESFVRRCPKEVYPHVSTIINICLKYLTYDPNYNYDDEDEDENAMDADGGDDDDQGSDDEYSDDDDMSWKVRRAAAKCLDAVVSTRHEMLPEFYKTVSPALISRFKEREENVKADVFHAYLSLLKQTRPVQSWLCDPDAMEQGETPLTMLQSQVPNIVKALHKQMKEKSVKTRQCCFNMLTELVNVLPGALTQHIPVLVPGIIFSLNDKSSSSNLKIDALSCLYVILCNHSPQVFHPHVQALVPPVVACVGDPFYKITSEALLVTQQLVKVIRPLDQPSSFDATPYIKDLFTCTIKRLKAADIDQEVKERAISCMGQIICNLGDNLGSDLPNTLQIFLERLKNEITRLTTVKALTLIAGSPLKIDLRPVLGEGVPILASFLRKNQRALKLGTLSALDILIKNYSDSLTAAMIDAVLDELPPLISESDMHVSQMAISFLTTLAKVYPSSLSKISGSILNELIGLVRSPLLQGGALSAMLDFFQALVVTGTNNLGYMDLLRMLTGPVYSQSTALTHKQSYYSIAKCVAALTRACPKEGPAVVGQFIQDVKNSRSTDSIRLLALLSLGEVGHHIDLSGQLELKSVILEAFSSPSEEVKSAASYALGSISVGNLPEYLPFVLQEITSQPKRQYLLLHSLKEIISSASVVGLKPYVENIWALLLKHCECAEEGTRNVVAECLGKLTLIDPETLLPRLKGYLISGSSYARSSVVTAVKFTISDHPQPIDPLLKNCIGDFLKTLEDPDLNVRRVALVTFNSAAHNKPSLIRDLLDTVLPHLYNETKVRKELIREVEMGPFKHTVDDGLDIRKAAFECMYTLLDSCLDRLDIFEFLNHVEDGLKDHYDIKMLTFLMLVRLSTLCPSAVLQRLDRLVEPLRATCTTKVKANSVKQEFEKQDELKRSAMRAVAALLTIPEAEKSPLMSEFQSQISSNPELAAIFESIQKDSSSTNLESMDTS
UniProt Q8NDD1: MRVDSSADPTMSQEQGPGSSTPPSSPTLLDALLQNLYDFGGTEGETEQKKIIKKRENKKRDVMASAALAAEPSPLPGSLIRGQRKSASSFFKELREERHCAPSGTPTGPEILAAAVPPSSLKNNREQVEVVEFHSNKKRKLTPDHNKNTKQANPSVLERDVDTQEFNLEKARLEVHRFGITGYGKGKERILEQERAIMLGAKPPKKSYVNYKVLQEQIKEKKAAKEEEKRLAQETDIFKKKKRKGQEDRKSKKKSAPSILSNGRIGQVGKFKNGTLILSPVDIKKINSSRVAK
UniProt Q9Y6W3: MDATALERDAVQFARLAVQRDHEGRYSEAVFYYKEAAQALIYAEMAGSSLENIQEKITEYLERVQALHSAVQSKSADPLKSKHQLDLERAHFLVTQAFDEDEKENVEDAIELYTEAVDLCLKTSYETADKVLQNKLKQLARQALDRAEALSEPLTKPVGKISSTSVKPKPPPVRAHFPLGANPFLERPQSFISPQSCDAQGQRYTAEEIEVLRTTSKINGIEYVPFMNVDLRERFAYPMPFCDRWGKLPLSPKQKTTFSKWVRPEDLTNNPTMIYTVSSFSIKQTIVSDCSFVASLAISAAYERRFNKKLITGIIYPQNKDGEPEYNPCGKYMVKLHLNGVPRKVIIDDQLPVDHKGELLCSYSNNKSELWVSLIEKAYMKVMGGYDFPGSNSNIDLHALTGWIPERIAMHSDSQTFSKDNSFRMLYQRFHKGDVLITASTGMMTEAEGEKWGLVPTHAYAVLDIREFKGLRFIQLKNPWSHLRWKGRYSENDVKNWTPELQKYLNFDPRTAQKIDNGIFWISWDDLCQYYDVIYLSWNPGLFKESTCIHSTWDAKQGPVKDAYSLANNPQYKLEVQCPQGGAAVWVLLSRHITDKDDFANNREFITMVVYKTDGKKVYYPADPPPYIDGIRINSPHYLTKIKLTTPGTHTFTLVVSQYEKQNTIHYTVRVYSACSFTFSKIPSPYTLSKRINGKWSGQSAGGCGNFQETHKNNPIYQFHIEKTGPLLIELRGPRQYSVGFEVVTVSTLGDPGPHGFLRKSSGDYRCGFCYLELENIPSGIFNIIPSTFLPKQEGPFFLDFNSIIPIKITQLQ
UniProt Q9Y6E2: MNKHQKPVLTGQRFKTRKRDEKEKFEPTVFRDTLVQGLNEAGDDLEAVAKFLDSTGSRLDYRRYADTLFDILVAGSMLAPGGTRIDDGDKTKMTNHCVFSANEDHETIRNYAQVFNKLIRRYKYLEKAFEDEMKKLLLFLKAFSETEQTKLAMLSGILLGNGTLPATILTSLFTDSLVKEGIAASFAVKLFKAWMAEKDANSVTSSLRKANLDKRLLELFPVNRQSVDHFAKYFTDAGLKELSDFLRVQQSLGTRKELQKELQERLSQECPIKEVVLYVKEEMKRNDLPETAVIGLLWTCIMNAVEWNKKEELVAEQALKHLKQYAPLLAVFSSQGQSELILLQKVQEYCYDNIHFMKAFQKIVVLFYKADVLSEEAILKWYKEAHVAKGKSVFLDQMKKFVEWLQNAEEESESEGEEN
UniProt O60566, whole entry, looked up: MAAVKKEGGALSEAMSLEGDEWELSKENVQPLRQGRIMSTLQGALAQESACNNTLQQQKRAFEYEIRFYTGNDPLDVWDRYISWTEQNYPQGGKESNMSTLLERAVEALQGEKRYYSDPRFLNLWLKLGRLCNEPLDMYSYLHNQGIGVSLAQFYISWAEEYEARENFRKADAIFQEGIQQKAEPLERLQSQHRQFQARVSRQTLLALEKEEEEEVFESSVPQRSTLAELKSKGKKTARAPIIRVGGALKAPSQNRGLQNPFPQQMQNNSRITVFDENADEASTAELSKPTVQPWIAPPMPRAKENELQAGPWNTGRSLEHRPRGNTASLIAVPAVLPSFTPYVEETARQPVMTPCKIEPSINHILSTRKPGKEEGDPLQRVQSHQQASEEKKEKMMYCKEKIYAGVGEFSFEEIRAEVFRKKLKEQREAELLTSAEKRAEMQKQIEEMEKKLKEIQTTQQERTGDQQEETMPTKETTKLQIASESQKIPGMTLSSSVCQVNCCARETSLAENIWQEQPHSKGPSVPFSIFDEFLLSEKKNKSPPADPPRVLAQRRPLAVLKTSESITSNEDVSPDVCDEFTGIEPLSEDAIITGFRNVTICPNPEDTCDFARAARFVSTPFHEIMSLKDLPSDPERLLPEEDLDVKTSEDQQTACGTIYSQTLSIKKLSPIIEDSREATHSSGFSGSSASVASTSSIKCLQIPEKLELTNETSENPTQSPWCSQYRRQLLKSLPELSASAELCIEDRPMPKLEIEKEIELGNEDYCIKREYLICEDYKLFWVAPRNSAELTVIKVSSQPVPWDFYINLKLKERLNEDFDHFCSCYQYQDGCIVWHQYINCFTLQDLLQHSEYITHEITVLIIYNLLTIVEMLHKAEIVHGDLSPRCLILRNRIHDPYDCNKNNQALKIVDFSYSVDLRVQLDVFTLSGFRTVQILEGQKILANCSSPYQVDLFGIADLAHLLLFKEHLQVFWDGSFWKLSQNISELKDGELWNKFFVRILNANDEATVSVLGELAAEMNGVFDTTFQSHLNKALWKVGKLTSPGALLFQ
UniProt Q2NKX9: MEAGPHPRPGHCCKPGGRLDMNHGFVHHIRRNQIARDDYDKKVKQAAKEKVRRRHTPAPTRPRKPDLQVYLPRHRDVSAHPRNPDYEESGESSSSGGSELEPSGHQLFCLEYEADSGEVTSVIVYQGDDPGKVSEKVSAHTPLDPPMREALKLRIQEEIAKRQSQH
UniProt Q32NC0: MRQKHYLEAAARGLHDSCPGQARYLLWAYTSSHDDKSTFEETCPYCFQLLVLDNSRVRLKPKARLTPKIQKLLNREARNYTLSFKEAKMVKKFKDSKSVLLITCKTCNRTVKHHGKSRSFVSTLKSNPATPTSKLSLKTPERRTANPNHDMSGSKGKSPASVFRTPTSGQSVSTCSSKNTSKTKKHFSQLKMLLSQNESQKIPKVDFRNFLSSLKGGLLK

Legend:
Experiment in all cases: log2 fold change, soluble protein after heating vs DMSO (PISA); higher = thermal stabilisation; K562 lysate, 10 uM; active = over 0.2 and 3.5 SD of the protein, either way, in both replicates (recomputed)
nilotinib = compound: Cc1cn(-c2cc(NC(=O)c3ccc(C)c(Nc4nccc(-c5cccnc5)n4)c3)cc(C(F)(F)F)c2)cn1 [nilotinib]
How it was run: (§1)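 Quantification was by TMTpro 16plex LC-MS/MS with equalised channel sums, applied to the supernatant after 21,000xg for 90 min. Samples were crude K562 extract at 1 mg/mL protein in PBS pH 7.4 with 1 mM MgCl2, treated with 10 μM compound for 30 min, heated for 3 min across 48°C-58°C, pooled and brought to 0.5% NP-40 at 4°C. Values are log-two fold changes in thermal stability relative to solvent controls, from duplicates.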

[1] = compound: Cc1nc(Nc2n[nH]c3c2CN(C(=O)N[C@H](CN(C)C)c2ccccc2)C3(C)C)c2sccc2n1
How it was run: as §1

dasatinib = compound: Cc1nc(Nc2ncc(C(=O)Nc3c(C)cccc3Cl)s2)cc(N2CCN(CCO)CC2)n1 [dasatinib]
How it was run: as §1

[2] = compound: Cc1ncc(-c2ccnc(Nc3ccc(S(C)(=O)=O)cc3)n2)n1C(C)C
How it was run: as §1

[3] = compound: Cn1cc(-c2ccc3c(c2)CCN3C(=O)Cc2cccc(C(F)(F)F)c2)c2c(N)ncnc21
How it was run: as §1

quisinostat = compound: Cn1cc(CNCC2CCN(c3ncc(C(=O)NO)cn3)CC2)c2ccccc21 [quisinostat]
How it was run: as §1

tipifarnib = compound: Cn1cncc1[C@@](N)(c1ccc(Cl)cc1)c1ccc2c(c1)c(-c1cccc(Cl)c1)cc(=O)n2C [tipifarnib]
How it was run: as §1

[4] = compound: NC(=O)Nc1cc(-c2cccc(F)c2)sc1C(=O)N[C@H]1CCCNC1
How it was run: as §1

[5] = compound: NC(=O)c1cnc(N[C@@H]2CCCC[C@@H]2N)nc1Nc1cccc(-n2nccn2)c1
How it was run: as §1

[6] = compound: NC1(c2ccc(-c3nc4ccn5c(=O)[nH]nc5c4cc3-c3ccccc3)cc2)CCC1
How it was run: as §1

Target	log2 fold change (nilotinib)	log2 fold change [1]	log2 fold change (dasatinib)	log2 fold change [2]	log2 fold change [3]	log2 fold change (quisinostat)	log2 fold change (tipifarnib)	log2 fold change [4]	log2 fold change [5]	log2 fold change [6]
CAPZA2 (UniProt P47755)	inactive: -0.002	inactive: -0.001	inactive: 0.002	inactive: 0	inactive: -0.043	inactive: -0.002	inactive: -0.014	inactive: -0.004	inactive: -0.019	inactive: 0.008
CAB39L (UniProt Q9H9S4)	inactive: 0.033	inactive: -0.056	inactive: -0.138	inactive: -0.02	inactive: -0.018	inactive: -0.147	inactive: 0.001	inactive: 0.028	inactive: -0.01	inactive: -0.029
CAB39 (UniProt Q9Y376)	inactive: 0.009	inactive: -0.017	inactive: 0.008	inactive: -0.005	inactive: 0.042	inactive: 0.039	inactive: 0.007	inactive: -0.015	inactive: 0	inactive: 0.014
CALCOCO1 (UniProt Q9P1Z2)	inactive: -0.054	inactive: 0.031	inactive: -0.012	inactive: -0.041	inactive: 0.034	inactive: -0.042	inactive: 0.046	inactive: 0.02	inactive: -0.041	inactive: -0.009
CANT1 (UniProt Q8WVQ1)	inactive: -0.001	inactive: -0.022	inactive: -0.019	inactive: -0.002	inactive: 0.016	inactive: 0.075	inactive: -0.037	inactive: -0.024	inactive: -0.002	inactive: 0.021
C9orf72 (UniProt Q96LT7)	inactive: 0.017	inactive: -0.063	inactive: -0.025	inactive: 0.073	inactive: 0.001	inactive: -0.034	inactive: -0.065	inactive: -0.03	inactive: 0.015	inactive: -0.014
CAMSAP1 isoform 3 (UniProt Q5T5Y3)	inactive: -0.009	inactive: 0.038	inactive: -0.02	inactive: 0.005	inactive: -0.031	inactive: -0.038	inactive: -0.03	inactive: -0.001	inactive: 0.012	inactive: 0.019
C15orf40 (UniProt Q8WUR7)	inactive: 0.046	inactive: -0.069	inactive: 0.035	inactive: 0.11	inactive: -0.005	inactive: -0.016	inactive: -0.113	inactive: -0.027	inactive: -0.023	inactive: -0.016
C8orf76 (UniProt Q96K31)	inactive: -0.01	inactive: -0.05	inactive: 0.065	inactive: 0.039	inactive: 0.039	inactive: -0.005	inactive: 0.016	inactive: 0.003	inactive: -0.014	inactive: -0.032
C12orf73 (UniProt Q69YU5)	inactive: 0.047	inactive: 0.07	inactive: 0.118	inactive: 0.061	inactive: -0.046	inactive: 0.055	inactive: -0.032	inactive: -0.113	inactive: 0.049	inactive: 0
C18orf25 (UniProt Q96B23)	inactive: 0.139	inactive: -0.014	inactive: -0.022	inactive: -0.018	inactive: 0.082	inactive: -0.007	inactive: 0.003	inactive: 0	inactive: 0.011	inactive: -0.008
CAMK2G isoform 8 (UniProt Q13555)	inactive: -0.007	active: 0.518	inactive: -0.034	inactive: 0.039	inactive: -0.062	inactive: -0.125	inactive: -0.005	inactive: 0.219	inactive: 0.019	inactive: -0.125
C11orf54 (UniProt Q9H0W9)	inactive: 0.054	inactive: -0.008	inactive: 0.012	inactive: 0.031	inactive: -0.05	inactive: 0.042	inactive: 0.018	inactive: 0.003	inactive: -0.014	inactive: -0.002
C1D (UniProt Q13901)	inactive: -0.003	inactive: -0.036	inactive: -0.001	inactive: 0.021	inactive: -0.024	inactive: -0.018	inactive: 0.021	inactive: 0.028	inactive: 0.052	inactive: -0.013
CAND1 (UniProt Q86VP6)	inactive: 0.029	inactive: -0.005	inactive: 0.012	inactive: 0.007	inactive: 0	inactive: -0.005	inactive: 0.001	inactive: -0.013	inactive: -0.006	inactive: 0
C1orf131 isoform 5 (UniProt Q8NDD1)	inactive: -0.106	inactive: -0.059	inactive: 0.048	inactive: -0.135	inactive: 0.034	inactive: -0.103	inactive: 0.073	inactive: -0.025	inactive: -0.035	inactive: 0.002
CARD6 (UniProt Q9BX69)	inactive: 0.067	inactive: 0.162	inactive: 0.05	inactive: 0.165	inactive: 0.006	inactive: -0.167	inactive: -0.03	inactive: 0.067	–	–
CAPN7 (UniProt Q9Y6W3)	inactive: 0.022	inactive: -0.018	inactive: 0.016	inactive: -0.036	inactive: 0.035	inactive: -0.012	inactive: 0.009	inactive: -0.002	inactive: 0.006	inactive: -0.022
CAMLG (UniProt P49069)	inactive: 0.048	inactive: -0.082	inactive: 0.017	inactive: -0.069	inactive: 0.064	inactive: 0.01	inactive: -0.084	inactive: 0.005	inactive: -0.009	inactive: 0.046
BZW2 (UniProt Q9Y6E2)	inactive: 0.007	inactive: 0	inactive: -0.039	inactive: -0.008	inactive: 0.012	inactive: 0.097	inactive: -0.003	inactive: 0.011	inactive: 0.002	inactive: 0.016
BUB1B isoform 3 (UniProt O60566)	inactive: 0.007	inactive: -0.012	inactive: -0.015	inactive: 0.014	inactive: 0.024	inactive: -0.076	inactive: -0.013	inactive: 0.028	inactive: -0.003	inactive: -0.004
C19orf12 (UniProt Q9NSK7)	inactive: 0.064	inactive: 0.079	inactive: 0.103	inactive: 0.064	inactive: -0.065	inactive: 0.095	inactive: 0.031	inactive: 0.024	inactive: -0.054	–
C1GALT1C1 (UniProt Q96EU7)	inactive: 0.005	inactive: 0	inactive: -0.038	inactive: 0.048	inactive: 0.042	inactive: -0.028	inactive: 0.033	inactive: 0.05	inactive: -0.026	inactive: -0.001
C2orf68 (UniProt Q2NKX9)	inactive: 0.075	inactive: -0.038	inactive: 0.076	inactive: -0.112	inactive: 0.035	inactive: -0.027	inactive: 0.103	inactive: -0.046	inactive: -0.034	inactive: 0.026
C18orf21 (UniProt Q32NC0)	inactive: -0.025	inactive: 0.024	inactive: 0.059	inactive: 0.158	inactive: -0.018	inactive: -0.018	inactive: 0.008	inactive: 0.041	inactive: -0.032	inactive: -0.019
CAMKK2 (UniProt Q96RR4)	inactive: -0.038	inactive: 0.176	inactive: 0.031	inactive: 0.028	inactive: 0.023	inactive: -0.01	inactive: -0.037	inactive: 0.1	inactive: -0.046	inactive: 0
C4orf33 (UniProt Q8N1A6)	inactive: -0.024	inactive: -0.032	inactive: -0.078	inactive: 0.075	inactive: 0.011	inactive: -0.037	inactive: 0.057	inactive: 0.041	inactive: 0.014	inactive: -0.028
CALU isoform 3 (UniProt O43852)	inactive: -0.012	inactive: -0.004	inactive: 0.029	inactive: 0.007	inactive: -0.028	inactive: 0	inactive: -0.002	inactive: -0.017	inactive: 0	inactive: -0.022
CALM2 (UniProt P0DP24)	inactive: -0.009	inactive: 0.014	inactive: -0.013	inactive: 0.022	inactive: -0.001	inactive: -0.178	inactive: 0.016	inactive: -0.053	inactive: -0.014	inactive: -0.06
BUB3 (UniProt O43684)	inactive: 0.005	inactive: -0.041	inactive: -0.012	inactive: -0.02	inactive: -0.005	inactive: -0.011	inactive: 0.008	inactive: 0.016	inactive: -0.005	inactive: 0.03

A stretch taken from the entries so far, for reference:
Target	log2 fold change (nilotinib)	log2 fold change [1]	log2 fold change (dasatinib)	log2 fold change [2]	log2 fold change [3]	log2 fold change (quisinostat)	log2 fold change (tipifarnib)	log2 fold change [4]	log2 fold change [5]	log2 fold change [6]
C9orf72 (UniProt Q96LT7)	inactive: 0.017	inactive: -0.063	inactive: -0.025	inactive: 0.073	inactive: 0.001	inactive: -0.034	inactive: -0.065	inactive: -0.03	inactive: 0.015	inactive: -0.014
CAMSAP1 isoform 3 (UniProt Q5T5Y3)	inactive: -0.009	inactive: 0.038	inactive: -0.02	inactive: 0.005	inactive: -0.031	inactive: -0.038	inactive: -0.03	inactive: -0.001	inactive: 0.012	inactive: 0.019
C15orf40 (UniProt Q8WUR7)	inactive: 0.046	inactive: -0.069	inactive: 0.035	inactive: 0.11	inactive: -0.005	inactive: -0.016	inactive: -0.113	inactive: -0.027	inactive: -0.023	inactive: -0.016
C8orf76 (UniProt Q96K31)	inactive: -0.01	inactive: -0.05	inactive: 0.065	inactive: 0.039	inactive: 0.039	inactive: -0.005	inactive: 0.016	inactive: 0.003	inactive: -0.014	inactive: -0.032
C12orf73 (UniProt Q69YU5)	inactive: 0.047	inactive: 0.07	inactive: 0.118	inactive: 0.061	inactive: -0.046	inactive: 0.055	inactive: -0.032	inactive: -0.113	inactive: 0.049	inactive: 0
C18orf25 (UniProt Q96B23)	inactive: 0.139	inactive: -0.014	inactive: -0.022	inactive: -0.018	inactive: 0.082	inactive: -0.007	inactive: 0.003	inactive: 0	inactive: 0.011	inactive: -0.008
